Data: publication PMC7806473
No constants are given. Whether binding was seen depends on the method and setting. Some binding calls cover weakened binding; strength is not graded here.

Molecular target: T1, bovine alpha-lactalbumin (α-LA), calcium-depleted (bovine), P00711
T1 chain: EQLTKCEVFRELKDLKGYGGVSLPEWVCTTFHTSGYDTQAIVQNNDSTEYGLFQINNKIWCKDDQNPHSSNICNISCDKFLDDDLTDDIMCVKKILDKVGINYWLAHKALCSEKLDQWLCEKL
Test: native gel or EMSA; 12% discontinuous native PAGE, stacking gel pH 6.8, resolving gel pH 8.8, Coomassie stain; both purified
Settings: remark: other sources report otherwise

B1: bovine alpha-lactalbumin (α-LA), calcium-depleted, P00711 20-142 (natural protein)
chain: T1 chain
binding: binds
